Laboratory results reported in article PMC6683420 (BMC Molecular and Cell Biology, 2019).
No constants are given. Whether binding was seen depends on the method and setting. Some binding calls cover weakened binding; strength is not graded here.

Chains of the proteins cited; added tags and fusions are not shown. Residues count along the entry.
UniProt P25942, residues 21-193: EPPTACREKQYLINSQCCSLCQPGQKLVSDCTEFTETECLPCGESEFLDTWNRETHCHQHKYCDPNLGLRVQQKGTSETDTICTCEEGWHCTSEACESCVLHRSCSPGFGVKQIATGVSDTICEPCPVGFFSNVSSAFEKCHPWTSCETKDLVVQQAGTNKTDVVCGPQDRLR

Biological target: [CD40(h)(21–193)]-Tev-His6, human CD40 extracellular domain (human) (UniProt P25942)
Experiment: crystal structure; ABBV-323 Fab and CD40 mixed at 1.05:1 molar ratio, complex purified by SEC; crystals by vapor diffusion at 23 °C, 2 M ammonium sulfate, 0.1 M phosphate-citrate pH 4.2; 2 complexes in the asymmetric unit; CD40 dimer generated by crystallographic symmetry; both purified

With “[CD40(h)(21–193)]-Tev-His6, human CD40 extracellular domain (from UniProt P25942 21-193) (domain or fragment; other documents disagree on this pair)” the binding was “binds”.
